Read-outs that look alike come from different tables or passages of the source. The match of structure and compound is tentative.
Experiments:
[1] = molecular target: recombinant human Meningioma Expressed Antigen 5 (MGEA5), also referred to as O-GlcNAcase (OGA) (Homo sapiens, UniProt O60502); test: OGA biochemical assay (inhibition of FM-GlcNAc hydrolysis, fluorescence)
Source text: The assay is based on the inhibition of the hydrolysis of fluorescein mono-B-D-N-Acetyl-Glucosamine (FM-GcNAc) (Mariappa et al. 2015, Biochem J470:255) by the recombinant human Meningioma Expressed Antigen 5 (MGEA5), also referred to as O-GlcNAcase (OGA). The hydrolysis FM-GlcNAc (Marker Gene technologies, cat #M1485) results in the formation of B-D-N-glucosamineacetate and fluorescein. The fluorescence of the latter can be measured at excitation wavelength 485 nm and emission wavelength 538 nm. An increase in enzyme activity results in anincrease in fluorescence signal. Full length OGA enzyme was purchased at OriGene (cat #TP322411). The enzyme was stored in 25 mM Tris.HCl, pH 7.3, 100 mM glycine, 10% glycerol at −20° C. Thiamet G and GlcNAcStatin were tested as reference compounds (Yuzwa et al. 2008 Nature Chemical Biology 4:483; Yuzwa et al. 2012 Nature Chemical Biology 8:393). The assay was performed in 200 mM Citrate/phosphate buffer supplemented with 0.005% Tween-20. 35.6 g Na2HPO4 2H2O (Sigma, #C0759) were dissolved in 1 L water to obtain a 200 mM solution. 19.2 g citric acid (Merck, #1.06580) was dissolved in 1 L water to obtain a 100 mM solution. pH of the sodiumphosphate solution was adjusted with the citric acid solution to 7.2. The buffer to stop the reaction consists of a 500 mM Carbonate buffer, pH 11.0. 734 mg FM-GlcNAc were dissolved in 5.48 mL DMSO to obtain a 250 mM solution and was stored at −20° C. OGA was used at a 2 nM concentration and FM-GcNAc at a 100 uM final concentration. Dilutions were prepared in assay buffer.
50 nl of a compound dissolved in DMSO was dispensed on Black Proxiplate™ 384 Plus Assay plates (Perkin Elmer, #6008269) and 3 μl fl-OGA enzyme mix added subsequently. Plates were pre-incubated for 60 min at room temperature and then 2 μl FM-GlcNAc substrate mix added.
Plates were briefly centrifuged for 1 min at 1000 rpm and incubate at room temperature for 6 h. To stop the reaction 5 μl STOP buffer were added and plates centrifuge again 1 min at 1000 rpm. Fluorescence was quantified in the Thermo Scientific Fluoroskan Ascent or the PerkinElmer EnVision with excitation wavelength 485 nm and emission wavelength 538 nm.
For analysis a best-fit curve is fitted by a minimum sum of squares method. From this an IC50 value and Hill coefficient was obtained. High control (no inhibitor) and low control (saturating concentrations of standard inhibitor) were used to define the minimum and maximum values.

The chains behind the UniProt entries cited, without tags or fusion partners.
UniProt O60502, whole entry: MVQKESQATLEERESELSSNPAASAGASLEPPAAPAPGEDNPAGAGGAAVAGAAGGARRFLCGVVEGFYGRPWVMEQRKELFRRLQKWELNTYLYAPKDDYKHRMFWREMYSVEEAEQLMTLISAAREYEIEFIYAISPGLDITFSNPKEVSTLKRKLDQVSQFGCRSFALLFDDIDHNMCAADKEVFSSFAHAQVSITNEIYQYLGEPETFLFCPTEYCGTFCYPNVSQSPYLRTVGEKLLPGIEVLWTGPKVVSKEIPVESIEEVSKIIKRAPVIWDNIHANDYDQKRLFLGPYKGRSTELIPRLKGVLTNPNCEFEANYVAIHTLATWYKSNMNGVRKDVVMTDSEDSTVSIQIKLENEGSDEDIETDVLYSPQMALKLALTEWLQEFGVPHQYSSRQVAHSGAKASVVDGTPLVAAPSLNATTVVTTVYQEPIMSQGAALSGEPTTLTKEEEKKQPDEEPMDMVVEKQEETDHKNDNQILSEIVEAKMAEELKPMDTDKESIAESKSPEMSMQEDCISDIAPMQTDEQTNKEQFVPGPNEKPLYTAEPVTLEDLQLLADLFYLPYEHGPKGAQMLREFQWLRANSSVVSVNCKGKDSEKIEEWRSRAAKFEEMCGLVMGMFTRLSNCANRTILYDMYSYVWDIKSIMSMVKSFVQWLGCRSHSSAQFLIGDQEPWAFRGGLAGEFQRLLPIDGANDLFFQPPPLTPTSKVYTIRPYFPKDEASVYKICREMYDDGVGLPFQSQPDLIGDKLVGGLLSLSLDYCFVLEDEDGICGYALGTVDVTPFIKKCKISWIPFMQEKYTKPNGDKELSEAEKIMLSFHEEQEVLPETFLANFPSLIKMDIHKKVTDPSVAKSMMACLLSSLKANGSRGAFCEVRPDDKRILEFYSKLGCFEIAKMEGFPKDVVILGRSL

OGA = OGA (Homo sapiens, UniProt O60502); test: OGA cellular assay (ICC detection of O-GlcNAcylated proteins in HEK293 cells inducible for P301L mutant human Tau); conditions: 6 hours incubation; for Cellular Emax (%): maximum = Thiamet G 200 uM
Description: HEK293 cells inducible for P301L mutant human Tau (isoform 2N4R) were established at Janssen. Thiamet-G was used for both plate validation (high control) and as reference compound (reference EC50 assay validation). OGA inhibition is evaluated through the immunocytochemical (ICC) detection of O-GlcNAcylated proteins by the use of a monoclonal antibody (CTD110.6; Cell Signaling, #9875) detecting 0-GlcNAcylated residues as previously described (Dorfmueller et al. 2010 Chemistry & biology, 17:1250). Inhibition of OGA will result in an increase of 0-GlcNAcylated protein levels resulting in an increased signal in the experiment. Cell nuclei are stained with Hoechst to give a cell culture quality control and a rough estimate of immediate compounds toxicity, if any. ICC pictures are imaged with a Perkin Elmer Opera Phenix plate microscope and quantified with the provided software Perkin Elmer Harmony 4.1.
Cells were propagated in DMEM high Glucose (Sigma, #D5796) following standard procedures. 2 days before the cell assay cells are split, counted and seeded in Poly-D-Lysine (PDL) coated 96-wells (Greiner, #655946) plate at a cell density of 12,000 cells per cm^2 (4,000 cells per well) in 100p of Assay Medium (Low Glucose medium is used to reduce basal levels of GlcNAcylation) (Park et al. 2014 The Journal of biological chemistry 289:13519). At the day of compound test medium from assay plates was removed and replenished with 90 μl of fresh Assay Medium. 10 μl of compounds at a 10 fold final concentration were added to the wells. Plates were centrifuged shortly before incubation in the cell incubator for 6 hours. DMSO concentration was set to 0.2%. Medium is discarded by applying vacuum. For staining of cells medium was removed and cells washed once with 100 μl D-PBS (Sigma, #D8537). From next step onwards unless other stated assay volume was always 50p and incubation was performed without agitation and at room temperature. Cells were fixed in 50 μl of a 4% paraformaldehyde (PFA, Alpha aesar, #043368) PBS solution for 15 minutes at room temperature. […] Before analysis samples were washed 2 times manually for 5 minutes in ICC base buffer.
Imaging is performed using Perkin Elmer Phenix Opera using a water 20× objective and recording 9 fields per well. Intensity readout at 488 nm is used as a measure of O-GlcNAcylation level of total proteins in wells. To assess potential toxicity of compounds nuclei were counted using the Hoechst staining. IC50-values are calculated using parametric non-linear regression model fitting. As a maximum inhibition Thiamet G at a 200 uM concentration is present on each plate. In addition, a concentration response of Thiamet G is calculated on each plate.

Enzymatic Emax (%) [1] [%]	Enzymatic hOGA; pIC50 [1]	Cellular hOGA; pEC50 (OGA)	Cellular Emax (%) (OGA)	Enzymatic Emax (%) ([1]; tested form: 2HCl)	Enzymatic hOGA; pIC50 ([1]; tested form: 2HCl)	Cellular Emax (%) (OGA; tested form: 2HCl)	Cellular hOGA; pEC50 (OGA; tested form: 2HCl)	SMILES
100	7.0	<6	37	–	–	–	–	Cc1cc(OC2CCN(C(C)c3ccc4sc(C)nc4n3)CC2)nc(C)n1 (stereo not shown)
–	–	–	–	97	7.4	89	6.9	Cc1cc(OC2CCN(C(C)c3nc4c(cc3F)CCCO4)CC2)cc(C)n1 (stereo not shown)
102	7.4	<6	47	–	–	–	–	Cc1nc(OC2CCN(C(C)c3ccc4c(n3)OCCO4)CC2)ccc1C#N (stereo not shown)
–	–	–	–	98	6.5	74	6.4	Cc1cc(OC2CCN(C(C)c3ccc4c(n3)OCCC4)CC2)cc(C)n1 (stereo not shown)

— patent US20210122763A1, “OGA INHIBITOR COMPOUNDS” (Janssen Pharmaceutica NV, priority 2018, published 2021)
